Data published in the supplement of paper PMC7666118.
The list shows a part of the results.

Amino acid sequences for entries named in this document (tags omitted). A change or cut given only in a name is not applied to a line headed by its entry.
UniProt Q9Y2E5: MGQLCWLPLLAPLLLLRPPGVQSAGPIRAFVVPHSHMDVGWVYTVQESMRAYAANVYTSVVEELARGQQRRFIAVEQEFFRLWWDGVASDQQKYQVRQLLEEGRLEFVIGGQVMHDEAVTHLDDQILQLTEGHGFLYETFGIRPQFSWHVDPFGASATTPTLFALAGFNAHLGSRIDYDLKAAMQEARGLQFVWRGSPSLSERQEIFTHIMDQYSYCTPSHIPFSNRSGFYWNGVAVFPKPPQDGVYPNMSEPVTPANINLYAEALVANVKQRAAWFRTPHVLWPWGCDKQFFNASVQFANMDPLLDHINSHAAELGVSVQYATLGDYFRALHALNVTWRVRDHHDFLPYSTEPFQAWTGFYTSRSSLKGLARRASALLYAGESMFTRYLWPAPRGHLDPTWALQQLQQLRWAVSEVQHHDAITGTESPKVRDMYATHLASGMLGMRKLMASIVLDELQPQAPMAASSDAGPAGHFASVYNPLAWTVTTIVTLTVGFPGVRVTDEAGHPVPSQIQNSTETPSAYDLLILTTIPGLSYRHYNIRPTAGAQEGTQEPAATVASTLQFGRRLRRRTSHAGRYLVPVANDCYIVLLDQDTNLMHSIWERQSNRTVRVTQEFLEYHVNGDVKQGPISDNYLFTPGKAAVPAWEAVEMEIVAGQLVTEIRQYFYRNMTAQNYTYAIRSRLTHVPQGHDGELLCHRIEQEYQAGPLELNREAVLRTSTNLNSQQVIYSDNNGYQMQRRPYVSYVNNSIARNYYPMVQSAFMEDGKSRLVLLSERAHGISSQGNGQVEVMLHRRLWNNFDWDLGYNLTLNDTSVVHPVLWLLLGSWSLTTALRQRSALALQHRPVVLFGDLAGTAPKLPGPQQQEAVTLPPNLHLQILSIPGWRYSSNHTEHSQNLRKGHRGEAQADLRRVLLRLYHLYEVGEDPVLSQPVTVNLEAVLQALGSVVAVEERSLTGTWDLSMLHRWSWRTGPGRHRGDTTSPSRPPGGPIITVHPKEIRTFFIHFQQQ
UniProt O00462: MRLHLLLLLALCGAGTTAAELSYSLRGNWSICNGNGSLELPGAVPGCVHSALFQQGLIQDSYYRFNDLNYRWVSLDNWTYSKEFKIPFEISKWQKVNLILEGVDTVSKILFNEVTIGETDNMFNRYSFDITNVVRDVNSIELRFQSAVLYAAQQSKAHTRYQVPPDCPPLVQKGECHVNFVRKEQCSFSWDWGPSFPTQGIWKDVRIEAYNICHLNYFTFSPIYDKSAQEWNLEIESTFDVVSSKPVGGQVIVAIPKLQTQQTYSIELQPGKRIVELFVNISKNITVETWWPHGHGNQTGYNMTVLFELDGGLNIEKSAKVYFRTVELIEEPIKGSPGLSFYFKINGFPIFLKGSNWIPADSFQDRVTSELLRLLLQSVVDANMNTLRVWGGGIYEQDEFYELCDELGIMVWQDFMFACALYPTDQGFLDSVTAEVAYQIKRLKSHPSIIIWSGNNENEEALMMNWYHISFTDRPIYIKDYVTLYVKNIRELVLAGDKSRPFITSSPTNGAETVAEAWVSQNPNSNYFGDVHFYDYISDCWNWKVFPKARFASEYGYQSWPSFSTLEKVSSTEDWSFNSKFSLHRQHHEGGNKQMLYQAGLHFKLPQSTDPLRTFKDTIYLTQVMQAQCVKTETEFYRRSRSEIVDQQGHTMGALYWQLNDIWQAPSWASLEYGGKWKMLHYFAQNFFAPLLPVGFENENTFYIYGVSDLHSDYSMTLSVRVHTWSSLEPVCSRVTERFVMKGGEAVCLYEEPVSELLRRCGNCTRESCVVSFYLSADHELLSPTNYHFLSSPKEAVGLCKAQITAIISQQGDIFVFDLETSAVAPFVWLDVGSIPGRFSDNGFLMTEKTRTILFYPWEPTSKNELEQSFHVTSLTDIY
UniProt Q99735: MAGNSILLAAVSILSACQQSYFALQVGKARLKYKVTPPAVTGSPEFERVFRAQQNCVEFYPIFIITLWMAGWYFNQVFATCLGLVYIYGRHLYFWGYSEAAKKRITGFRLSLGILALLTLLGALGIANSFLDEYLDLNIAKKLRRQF
UniProt Q8IWA4: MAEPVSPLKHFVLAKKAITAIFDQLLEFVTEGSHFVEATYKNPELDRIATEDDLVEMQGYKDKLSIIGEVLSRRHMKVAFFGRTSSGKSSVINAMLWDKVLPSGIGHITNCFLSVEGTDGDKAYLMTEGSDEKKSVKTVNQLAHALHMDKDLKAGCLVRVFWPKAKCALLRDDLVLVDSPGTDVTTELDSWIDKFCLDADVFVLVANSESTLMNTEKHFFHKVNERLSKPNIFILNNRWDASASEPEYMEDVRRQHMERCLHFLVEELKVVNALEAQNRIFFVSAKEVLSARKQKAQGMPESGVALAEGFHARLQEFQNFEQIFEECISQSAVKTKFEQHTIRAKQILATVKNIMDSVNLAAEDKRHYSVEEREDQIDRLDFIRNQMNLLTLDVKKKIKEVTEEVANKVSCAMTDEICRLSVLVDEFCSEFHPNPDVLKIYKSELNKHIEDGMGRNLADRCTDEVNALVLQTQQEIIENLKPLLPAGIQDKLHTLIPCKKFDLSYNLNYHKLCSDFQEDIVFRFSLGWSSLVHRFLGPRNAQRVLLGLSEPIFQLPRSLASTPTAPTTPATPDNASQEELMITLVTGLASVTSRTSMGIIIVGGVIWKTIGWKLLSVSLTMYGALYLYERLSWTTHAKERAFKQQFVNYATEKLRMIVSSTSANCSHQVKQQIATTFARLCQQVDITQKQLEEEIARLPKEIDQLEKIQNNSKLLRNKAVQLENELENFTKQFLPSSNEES
UniProt Q9H000: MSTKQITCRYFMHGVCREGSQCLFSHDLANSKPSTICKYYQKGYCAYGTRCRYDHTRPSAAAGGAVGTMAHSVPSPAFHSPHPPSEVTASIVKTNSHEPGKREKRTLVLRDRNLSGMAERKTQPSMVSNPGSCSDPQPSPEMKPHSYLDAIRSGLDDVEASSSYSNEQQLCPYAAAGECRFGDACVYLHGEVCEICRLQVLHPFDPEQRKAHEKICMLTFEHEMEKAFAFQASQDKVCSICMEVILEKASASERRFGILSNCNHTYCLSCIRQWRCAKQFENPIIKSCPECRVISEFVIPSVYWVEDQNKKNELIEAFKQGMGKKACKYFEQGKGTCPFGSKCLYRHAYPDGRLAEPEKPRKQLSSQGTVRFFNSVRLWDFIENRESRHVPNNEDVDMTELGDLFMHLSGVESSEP
UniProt Q14728: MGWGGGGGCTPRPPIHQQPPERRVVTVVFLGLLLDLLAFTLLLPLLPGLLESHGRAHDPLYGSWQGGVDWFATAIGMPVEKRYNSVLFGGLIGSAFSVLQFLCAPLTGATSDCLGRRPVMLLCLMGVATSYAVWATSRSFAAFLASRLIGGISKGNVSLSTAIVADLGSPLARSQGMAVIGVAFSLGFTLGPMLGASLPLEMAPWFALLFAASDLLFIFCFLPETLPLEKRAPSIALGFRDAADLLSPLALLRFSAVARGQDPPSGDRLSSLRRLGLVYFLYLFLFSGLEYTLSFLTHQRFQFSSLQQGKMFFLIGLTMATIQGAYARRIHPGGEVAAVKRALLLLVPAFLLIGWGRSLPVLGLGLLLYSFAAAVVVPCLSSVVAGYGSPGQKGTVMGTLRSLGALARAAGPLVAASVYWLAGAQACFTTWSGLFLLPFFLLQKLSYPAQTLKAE
UniProt A6NJ78: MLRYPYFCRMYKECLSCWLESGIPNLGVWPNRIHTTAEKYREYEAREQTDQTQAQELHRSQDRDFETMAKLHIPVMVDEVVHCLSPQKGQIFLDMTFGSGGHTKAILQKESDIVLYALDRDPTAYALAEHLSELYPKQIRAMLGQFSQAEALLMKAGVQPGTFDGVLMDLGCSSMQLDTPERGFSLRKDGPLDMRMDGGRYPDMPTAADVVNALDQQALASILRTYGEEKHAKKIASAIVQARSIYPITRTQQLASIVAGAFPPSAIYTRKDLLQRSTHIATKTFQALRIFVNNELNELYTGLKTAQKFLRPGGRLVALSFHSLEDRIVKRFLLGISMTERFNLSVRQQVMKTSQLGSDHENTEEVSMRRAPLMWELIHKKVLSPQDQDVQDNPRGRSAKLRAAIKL
UniProt P49137, whole entry, looked up: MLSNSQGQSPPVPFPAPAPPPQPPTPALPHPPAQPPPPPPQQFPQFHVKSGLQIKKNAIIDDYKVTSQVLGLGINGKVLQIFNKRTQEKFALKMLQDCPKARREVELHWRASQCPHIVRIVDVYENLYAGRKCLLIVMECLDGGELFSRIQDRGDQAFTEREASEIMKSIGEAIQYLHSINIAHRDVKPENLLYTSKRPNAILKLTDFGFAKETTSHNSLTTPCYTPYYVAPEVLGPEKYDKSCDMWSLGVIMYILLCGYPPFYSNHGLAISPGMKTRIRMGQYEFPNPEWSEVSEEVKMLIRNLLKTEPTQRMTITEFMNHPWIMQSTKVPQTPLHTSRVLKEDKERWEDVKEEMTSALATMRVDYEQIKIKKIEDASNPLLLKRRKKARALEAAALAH
UniProt Q14676: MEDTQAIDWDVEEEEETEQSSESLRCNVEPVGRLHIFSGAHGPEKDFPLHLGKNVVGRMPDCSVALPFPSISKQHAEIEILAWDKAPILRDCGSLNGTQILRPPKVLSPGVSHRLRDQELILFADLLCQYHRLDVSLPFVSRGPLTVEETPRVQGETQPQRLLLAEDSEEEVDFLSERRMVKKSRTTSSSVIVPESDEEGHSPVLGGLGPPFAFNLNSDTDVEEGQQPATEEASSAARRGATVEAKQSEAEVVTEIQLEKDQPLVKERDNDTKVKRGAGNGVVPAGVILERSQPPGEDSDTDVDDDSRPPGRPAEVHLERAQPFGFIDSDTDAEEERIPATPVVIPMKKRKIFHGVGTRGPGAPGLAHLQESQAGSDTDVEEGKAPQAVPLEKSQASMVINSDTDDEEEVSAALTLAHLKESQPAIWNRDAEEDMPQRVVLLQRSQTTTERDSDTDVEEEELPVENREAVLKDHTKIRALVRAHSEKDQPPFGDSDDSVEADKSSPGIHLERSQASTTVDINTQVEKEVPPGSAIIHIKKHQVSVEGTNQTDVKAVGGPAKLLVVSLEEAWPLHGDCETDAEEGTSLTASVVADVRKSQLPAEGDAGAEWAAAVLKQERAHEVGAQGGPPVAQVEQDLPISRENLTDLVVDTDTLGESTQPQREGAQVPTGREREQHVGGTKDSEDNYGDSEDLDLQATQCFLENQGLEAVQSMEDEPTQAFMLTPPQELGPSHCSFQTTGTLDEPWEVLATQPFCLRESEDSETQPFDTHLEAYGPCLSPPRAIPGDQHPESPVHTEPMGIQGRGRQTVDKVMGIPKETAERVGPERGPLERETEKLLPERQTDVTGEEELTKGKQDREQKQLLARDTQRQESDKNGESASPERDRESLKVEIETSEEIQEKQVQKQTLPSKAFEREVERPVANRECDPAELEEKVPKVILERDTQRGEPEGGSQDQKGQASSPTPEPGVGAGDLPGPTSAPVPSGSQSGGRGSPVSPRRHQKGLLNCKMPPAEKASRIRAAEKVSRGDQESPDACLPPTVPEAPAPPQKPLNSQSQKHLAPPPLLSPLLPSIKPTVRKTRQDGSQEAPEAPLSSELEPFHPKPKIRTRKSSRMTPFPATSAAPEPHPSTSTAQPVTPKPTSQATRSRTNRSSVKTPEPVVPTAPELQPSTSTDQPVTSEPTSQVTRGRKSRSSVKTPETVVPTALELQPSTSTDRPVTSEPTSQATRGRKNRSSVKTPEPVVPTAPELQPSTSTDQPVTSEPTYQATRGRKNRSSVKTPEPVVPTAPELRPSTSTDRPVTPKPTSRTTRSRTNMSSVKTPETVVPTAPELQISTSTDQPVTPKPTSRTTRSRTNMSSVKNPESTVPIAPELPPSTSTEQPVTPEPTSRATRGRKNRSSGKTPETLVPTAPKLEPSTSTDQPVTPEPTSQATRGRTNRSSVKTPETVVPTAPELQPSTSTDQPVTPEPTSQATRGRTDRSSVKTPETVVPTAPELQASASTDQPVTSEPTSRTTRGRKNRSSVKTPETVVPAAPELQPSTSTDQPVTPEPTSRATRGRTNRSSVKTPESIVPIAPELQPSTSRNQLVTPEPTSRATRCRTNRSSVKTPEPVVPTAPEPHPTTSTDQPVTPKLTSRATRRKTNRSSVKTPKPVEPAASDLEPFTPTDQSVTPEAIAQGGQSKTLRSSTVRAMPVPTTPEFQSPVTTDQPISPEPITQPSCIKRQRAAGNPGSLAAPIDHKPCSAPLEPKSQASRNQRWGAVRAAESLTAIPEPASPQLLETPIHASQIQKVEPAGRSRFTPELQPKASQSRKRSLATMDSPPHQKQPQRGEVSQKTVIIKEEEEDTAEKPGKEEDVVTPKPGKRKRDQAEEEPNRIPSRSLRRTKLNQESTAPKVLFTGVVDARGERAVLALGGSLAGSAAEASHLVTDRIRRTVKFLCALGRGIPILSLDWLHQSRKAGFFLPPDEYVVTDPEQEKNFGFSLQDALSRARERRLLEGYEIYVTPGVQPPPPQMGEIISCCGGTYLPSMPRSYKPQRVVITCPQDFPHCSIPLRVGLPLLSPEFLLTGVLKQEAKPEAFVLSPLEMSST

Compound: COc1ccc(Cn2ccc3ccc(C(=O)NO)cc32)cc1
Assay: dose-dependent thermal stabilisation call (2D-TPP, DLPTP, 10% FDR) (binary (1 = stabilised)); higher = stabilised by the compound
Settings: system: HL-60 intact cells; concentration range 0.04-10 µM

Target | dose-dependent thermal stabilisation call
MAN2B2 (UniProt Q9Y2E5) | inactive: 0
MRPL21 (UniProt Q7Z2W9) | inactive: 0
MED17 (UniProt Q9NVC6) | inactive: 0
MRPL11 (UniProt Q9Y3B7) | inactive: 0
MANBA (UniProt O00462) | inactive: 0
MKRN1 (UniProt Q9UHC7) | inactive: 0
MGST2 (UniProt Q99735) | inactive: 0
MFN1 (UniProt Q8IWA4) | inactive: 0
MKRN2 (UniProt Q9H000) | inactive: 0
MFSD10 (UniProt Q14728) | inactive: 0
MCOLN1 (UniProt Q9GZU1) | inactive: 0
METT5D1 (UniProt A6NJ78) | inactive: 0
MEPCE (UniProt Q7L2J0) | inactive: 0
MED25 (UniProt Q71SY5) | inactive: 0
MRPL51 (UniProt Q4U2R6) | inactive: 0
MAPKAPK2 (UniProt P49137) | inactive: 0
MAP3K7 (UniProt O43318) | inactive: 0
MRPL17 (UniProt Q9NRX2) | inactive: 0
MDC1 (UniProt Q14676) | inactive: 0
MON2 (UniProt Q7Z3U7) | inactive: 0
MAP7D3 (UniProt Q8IWC1) | inactive: 0
MOBKL2A (UniProt Q96BX8) | inactive: 0
MRPS30 (UniProt Q9NP92) | inactive: 0
MRPL27 (UniProt Q9P0M9) | inactive: 0
MGC52424 | inactive: 0
MPG (UniProt P29372) | inactive: 0
MLEC (UniProt Q14165) | inactive: 0

Given tab-delimited: entries from further up
Target	dose-dependent thermal stabilisation call
MAPKAPK2 (UniProt P49137)	inactive: 0
MAP3K7 (UniProt O43318)	inactive: 0
MRPL17 (UniProt Q9NRX2)	inactive: 0
MDC1 (UniProt Q14676)	inactive: 0
MON2 (UniProt Q7Z3U7)	inactive: 0
MAP7D3 (UniProt Q8IWC1)	inactive: 0
MOBKL2A (UniProt Q96BX8)	inactive: 0
MRPS30 (UniProt Q9NP92)	inactive: 0
